Experimental data: PubChem BioAssay AID662 (National Center for Advancing Translational Sciences (NCATS), 2007)
Some of the results follow. Further columns of the screen follow, without active or inactive calls. Most of these compounds were active or inconclusive in the main read-out, so they are no random draw. Potencies come from curve fits of mixed quality, noted in brackets.

Experiment: Cell signaling CRE-BLA (Fsk stim)
Conditions: CHO CRE-bla reporter (cAMP response element driving beta-lactamase), forskolin EC10, beta-lactamase ratio; measured here: 460 nm blue channel
Description: NIH Molecular Libraries Screening Centers Network [MLSCN]
NIH Chemical Genomics Center [NCGC]
Assay Provider: Marshall W. Nirenberg, U.S. National heart lung & blood institute
Memories persist for different lengths of time, from seconds or minutes to a lifetime. There are two kinds of memory: short-term memory (STM) and long-term memory (LTM). STM lasts for minutes to hours, which maybe mediated by modifications of molecules involved in synaptic functions. LTM lasts for days or longer, and may be due to the formation of new synapses or restructuring of existing synapses. LTM, but not STM, requires gene transcription and synthesis of proteins. CREB (cyclic-AMP Responsive Element Binding Protein) is one of the candidates plays an important role for enhancement of some types of LTM. CREB, a family of transcription factors, regulates the transcription of genes containing cAMP Responsive Elements (CRE). CRE is a nucleotide sequence often found in the promoter regions of genes that are binding sites for CREB.
Using a beta-lactamase reporter-gene under control of cAMP responsive element, a cell-based assay [CellSensor(TM) CRE-bla CHO developed by Invitrogen Corp.] was used to measure forskolin-induced signaling. Library compounds were measured for their ability to modulate positively or negatively the action of EC10 NKH 477, a water soluble forskolin, on reporter gene activity. Compounds were screened in a titration series in 1536-well format. Positive and negative modulators were identified based on the AC50 values derived from the screening data.
NCGC Assay Protocol Summary
2000 cells/5uL in Opti-MEM medium containing 0.5% dialyzed FBS, 0.1 mM NEAA, 1 mM sodium pyruvate and 10 mM HEPES was dispensed into 1536-well plates and cells were cultured at 37 degrees Celsius overnight. […] And then the plates were incubated at 37 degrees Celsius for 3 hours. 1 uL of CCF4-dye mixture was added to each well. After incubated at room temperature for 2 hours the plates were measured on an EnVision plate reader at Excitation 405nm, Emission1=460nm and Emission 2=530nm. The %Activity was determined from the ratio of 460nm/530nm.
Keywords: NIH Roadmap, MLSCN, MLSMR, qHTS, NCGC, CRE, beta-lactamase reporter-gene assay.

SMILES	AC50
C(=C\c1ccccc1)/CN1CCN(c2ncnc3c2oc2ccccc23)CC1	10 µM [falling, partial curve]
CC(C)(C)n1ncc2c(=O)n(CC(=O)N3CCCc4ccccc43)cnc21	25.1 µM [rising, partial curve]
COc1ccc(-c2nnn(CC(=O)N(Cc3cccs3)C(C)C(=O)NC3CCCC3)n2)cc1OC (centres undefined)	10 µM [rising, single point]
NS(=O)(=O)c1ccc(CCNC(=O)NC2(C(F)(F)F)Oc3ccccc3O2)cc1	10 µM [falling, single point]
COc1ccc(N2CCN(CCNC(=O)c3c(C)cc(=O)oc3C)CC2)cc1	0.158 µM [rising, partial curve, poor fit]
O=C(NCc1ccco1)c1cc2ccccc2c(=O)o1	12.6 µM [falling, partial curve]
CCOC(=O)c1nnn(CC(=O)Nc2ccccc2OC)c1C(=O)OCC	20 µM [falling, partial curve, poor fit]
O=C(NCC1CCCO1)C1CCN(S(=O)(=O)c2cccnc2)CC1 (centres undefined)	0.0501 µM [falling, full curve, poor fit]
CCN(CC)S(=O)(=O)c1ccc2c(c1)nc(SCc1nc3ccsc3c(=O)[nH]1)n2CC	5.01 µM [rising, partial curve]
COC(=O)c1[nH]c2cc(C)ccc2c1NC(=O)CN1CCN(C(=O)c2ccco2)CC1	2.51 µM [falling, full curve]
CN(c1ccc(C(=O)NCCC2=CCCCC2)cc1)S(C)(=O)=O	0.631 µM [rising, single point]
c1ccc(Cn2c(SCc3cn4cccnc4n3)nnc2-c2ccco2)cc1	10 µM [rising, partial curve]
COC(=O)CNC(=O)c1cn(CC(C)C)c(=O)c2cc(OC)c(OC)cc12	10 µM [rising, single point]
COCCn1c(=O)c(C)nc2cnc(Nc3ccccc3)nc21	10 µM [rising, partial curve]
O=C(CSc1nnc(-c2ccc(O)cc2)n1Cc1ccco1)N1CCc2ccccc2C1	31.6 µM [falling, single point]
Cc1nnc(NC2=NCCC2)o1	12.6 µM [rising, single point]
CCOC(=O)CON1C(=O)C(C)(C)N(OCC(=O)OCC)C(=O)C1(C)C	0.398 µM [rising, partial curve]
COC1=Cc2c(ccc3ccc(=O)oc23)OC1(C)C	10 µM [rising, single point]
CC1(C)CC(=O)C(C=NCCN2CCNC2=O)=C(O)C1	0.00316 µM [falling, full curve, poor fit]
O=C(O)CNS(=O)(=O)c1ccc(Br)s1	0.316 µM [falling, partial curve]
CC1CCCCN1C(=O)COc1ccc(NC(=O)c2ccco2)cc1 (centres undefined)	0.251 µM [falling, full curve]
CCCCCSc1nc2c(c(=O)[nH]c(=O)n2C)n1CCc1ccccc1	2.51 µM [rising, full curve]
CCCC(c1nnnn1C(C)(C)CC)N(CCCO)Cc1cc2cc(C)cc(C)c2[nH]c1=O (centres undefined)	0.316 µM [falling, partial curve]

SMILES	AC50
Oc1ccc(N=Cc2ccc(-c3cccs3)s2)cc1	0.316 µM [rising, partial curve]
Cc1ccc(NC(=O)COC(=O)C2=COCCO2)cc1	5.01 µM [falling, single point]
Cc1cc(C)nc(N2CCN(c3ncnc4c3oc3ccccc34)CC2)n1	5.01 µM [falling, partial curve]
CNC1=C(Cl)C(=O)c2ccncc2C1=O	10 µM [falling, single point]
CC1(c2ccc(Cl)cc2Cl)OCC(Cn2ccnc2)O1 (centres undefined)	10 µM [rising, single point]
COc1nc(Nc2cccc(C(F)(F)F)c2)nc(OC)n1	10 µM [rising, partial curve]
CCOC(=O)c1c(C)n(C)c2ccc(OCC(O)CN3C(=O)c4ccccc4S3(=O)=O)cc12 (centres undefined)	3.98 µM [rising, partial curve]
O=C1c2[nH]nc(-c3ccccc3O)c2C(c2ccccc2)N1Cc1ccco1 (centres undefined)	20 µM [falling, single point]
CCSc1nnc(NC(=O)Cc2ccc(OC)c(S(=O)(=O)N3CCOCC3)c2)s1	25.1 µM [rising, single point]
COC(=O)c1cccc(Oc2nc3c(c(=O)n(C)c(=O)n3C)n2C(C)C)c1	2 µM [rising, full curve]
CC(C)Cn1c(SCC#N)nc2ccccc2c1=O	0.251 µM [rising, full curve]
CCCOc1c(OC)cccc1C1CC(=O)Nc2cc3c(cc21)OCO3 (centres undefined)	12.6 µM [rising, partial curve]
COc1cccc(N2CC(O)=C(c3nc4ccccc4c(=O)[nH]3)C2=N)c1	10 µM [rising, partial curve]
Cc1ccc(CNc2cc(-c3nn4c(C)nnc4s3)ccc2C)s1	0.794 µM [rising, full curve]
CC1CN(Cc2nc3c(c(=O)n(C)c(=O)n3C)n2CCN2CCOCC2)CC(C)O1 (centres undefined)	7.94 µM [falling, partial curve]
Cn1cc(-c2nc3cnc(N4CCNCC4)nc3n(CCc3ccccc3)c2=O)c2ccccc21	2 µM [rising, full curve]
CCCCCOc1ccc(N2C(=O)CC(N(O)c3ccccc3)C2=O)cc1 (centres undefined)	5.01 µM [falling, partial curve]
Cc1csc2c(C#N)c(=O)c3c(n12)CCC3	6.31 µM [rising, single point]
Cc1noc(C)c1-c1nc(Nc2ccncc2)c2ccccc2n1	3.98 µM [rising, partial curve]
CC(=O)c1c(N(C)C)ccnc1C(F)(F)F	0.631 µM [rising, partial curve]
Cc1nn(-c2ccccc2C(=O)O)c(=O)c2ccccc12	3.16 µM [rising, single point]
Cc1ccc(CNC(=O)c2cc3c(=O)n(C)c4ccccc4c3n2C)o1	3.98 µM [rising, partial curve]
CC(C)(C)n1ncc2c(=O)n(CC(=O)NCc3ccco3)cnc21	15.8 µM [rising, single point]

SMILES	AC50
CCOC(=O)c1sc(NC(=O)C(CC)Sc2nnc3c4ccccc4n(CC)c3n2)nc1C (centres undefined)	3.16 µM [rising, full curve]
O=C(O)CCC(=O)Nc1ccc(N2CCOCC2)cc1	1.26 µM [falling, partial curve]
COc1ccccc1C(=O)Nc1ccc(S(=O)(=O)N2CCCC2)cc1	10 µM [rising, single point]
COc1ccc(C(c2sc3nc(C)nn3c2O)N2CCN(CCO)CC2)cc1OC (centres undefined)	10 µM [falling, single point]
Cc1nc2n(n1)C(c1ccccc1)C1=C(CC(c3ccco3)CC1=O)N2 (centres undefined)	12.6 µM [rising, partial curve]
Cc1cc(Nc2ccc(F)cc2Cl)n2ncnc2n1	10 µM [rising, single point]
Cn1c(C(=O)N2CCN(Cc3ccc4c(c3)OCO4)CC2)cc2c(=O)n(C)c3ccccc3c21	5.01 µM [rising, partial curve]
CCCc1ccc2c(N)c(C#N)sc2n1	10 µM [rising, partial curve]
COc1cccc(NC=C2C(=O)OC(C)(C)OC2=O)c1	0.00316 µM [falling, full curve]
COc1ccc(S(=O)(=O)N2CCC(C(=O)N3CCc4ccccc4C3)CC2)cc1OC	0.501 µM [rising, full curve, poor fit]
Clc1cccc(Cl)c1C(Nc1nncs1)Nc1nncs1	1.58 µM [falling, partial curve]
COc1ccc(-c2nn(C)c3sc(C(=O)N4CCOCC4)cc23)cc1OC	15.8 µM [rising, partial curve]
CCCCn1c(NC(=O)c2ccc(F)cc2)c(C#N)c2nc3ccccc3nc21	10 µM [rising, partial curve]
COC(=O)CNC(=O)CCCCC(=O)NCC(=O)OC	20 µM [falling, partial curve, poor fit]
CCCCc1ccc(NC(=O)N[C@H](C(=O)O)C(C)CC)cc1 (some centres undefined)	10 µM [falling, partial curve]
COc1ccc(S(=O)(=O)N2CCCC(C(=O)NC3CCCCC3)C2)cc1 (centres undefined)	5.01 µM [falling, single point]
CC1=C(C(=O)Nc2ccccc2)C(c2ccco2)C(C#N)=C(SCc2ccccc2)N1 (centres undefined)	10 µM [falling, single point]
O=C(O)c1ccc2cccc(Cl)c2c1O	12.6 µM [falling, partial curve]
CCOC(=O)C1=C(C)NC(C)=C(C(=O)OC)[C@@H]1c1cccc(Cl)c1Cl	12.6 µM [rising, single point]
Cc1ccccc1-n1c(=O)c2ccccc2n2c(=O)[nH]nc12	12.6 µM [rising, partial curve]
COc1ccc(-c2nc(-c3ccc(NC(=O)c4ccc(Br)o4)cc3)no2)cc1OC	25.1 µM [falling, single point]
O=C(O)c1cccc(Cn2cc(Cl)cn2)c1	5.01 µM [falling, single point]
COc1cccc(NC(=O)C2C3C=CC4(O3)C2C(=O)N(C2CC2)C4C(=O)NC2CCCCC2C)c1 (centres undefined)	10 µM [rising, partial curve]
